From article PMC4682051
No constants are given. Whether binding was seen depends on the method and setting. In cells and extracts the contact can be indirect. These calls come from enrichment with a bait or labelling near it, and not all partners need be listed. No binding means not detected with the bait.

By UniProt entry, the sequences of proteins in these tests, tags left out.
UniProt Q9Z1S5: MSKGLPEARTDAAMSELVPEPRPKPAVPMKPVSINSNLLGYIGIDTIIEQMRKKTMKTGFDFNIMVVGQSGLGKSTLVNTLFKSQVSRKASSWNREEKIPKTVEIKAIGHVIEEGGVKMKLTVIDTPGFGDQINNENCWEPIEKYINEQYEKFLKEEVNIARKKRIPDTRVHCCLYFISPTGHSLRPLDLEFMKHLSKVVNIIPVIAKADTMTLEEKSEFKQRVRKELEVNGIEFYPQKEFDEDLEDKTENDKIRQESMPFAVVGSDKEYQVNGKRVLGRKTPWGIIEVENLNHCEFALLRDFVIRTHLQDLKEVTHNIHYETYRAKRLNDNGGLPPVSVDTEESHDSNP
UniProt Q62261: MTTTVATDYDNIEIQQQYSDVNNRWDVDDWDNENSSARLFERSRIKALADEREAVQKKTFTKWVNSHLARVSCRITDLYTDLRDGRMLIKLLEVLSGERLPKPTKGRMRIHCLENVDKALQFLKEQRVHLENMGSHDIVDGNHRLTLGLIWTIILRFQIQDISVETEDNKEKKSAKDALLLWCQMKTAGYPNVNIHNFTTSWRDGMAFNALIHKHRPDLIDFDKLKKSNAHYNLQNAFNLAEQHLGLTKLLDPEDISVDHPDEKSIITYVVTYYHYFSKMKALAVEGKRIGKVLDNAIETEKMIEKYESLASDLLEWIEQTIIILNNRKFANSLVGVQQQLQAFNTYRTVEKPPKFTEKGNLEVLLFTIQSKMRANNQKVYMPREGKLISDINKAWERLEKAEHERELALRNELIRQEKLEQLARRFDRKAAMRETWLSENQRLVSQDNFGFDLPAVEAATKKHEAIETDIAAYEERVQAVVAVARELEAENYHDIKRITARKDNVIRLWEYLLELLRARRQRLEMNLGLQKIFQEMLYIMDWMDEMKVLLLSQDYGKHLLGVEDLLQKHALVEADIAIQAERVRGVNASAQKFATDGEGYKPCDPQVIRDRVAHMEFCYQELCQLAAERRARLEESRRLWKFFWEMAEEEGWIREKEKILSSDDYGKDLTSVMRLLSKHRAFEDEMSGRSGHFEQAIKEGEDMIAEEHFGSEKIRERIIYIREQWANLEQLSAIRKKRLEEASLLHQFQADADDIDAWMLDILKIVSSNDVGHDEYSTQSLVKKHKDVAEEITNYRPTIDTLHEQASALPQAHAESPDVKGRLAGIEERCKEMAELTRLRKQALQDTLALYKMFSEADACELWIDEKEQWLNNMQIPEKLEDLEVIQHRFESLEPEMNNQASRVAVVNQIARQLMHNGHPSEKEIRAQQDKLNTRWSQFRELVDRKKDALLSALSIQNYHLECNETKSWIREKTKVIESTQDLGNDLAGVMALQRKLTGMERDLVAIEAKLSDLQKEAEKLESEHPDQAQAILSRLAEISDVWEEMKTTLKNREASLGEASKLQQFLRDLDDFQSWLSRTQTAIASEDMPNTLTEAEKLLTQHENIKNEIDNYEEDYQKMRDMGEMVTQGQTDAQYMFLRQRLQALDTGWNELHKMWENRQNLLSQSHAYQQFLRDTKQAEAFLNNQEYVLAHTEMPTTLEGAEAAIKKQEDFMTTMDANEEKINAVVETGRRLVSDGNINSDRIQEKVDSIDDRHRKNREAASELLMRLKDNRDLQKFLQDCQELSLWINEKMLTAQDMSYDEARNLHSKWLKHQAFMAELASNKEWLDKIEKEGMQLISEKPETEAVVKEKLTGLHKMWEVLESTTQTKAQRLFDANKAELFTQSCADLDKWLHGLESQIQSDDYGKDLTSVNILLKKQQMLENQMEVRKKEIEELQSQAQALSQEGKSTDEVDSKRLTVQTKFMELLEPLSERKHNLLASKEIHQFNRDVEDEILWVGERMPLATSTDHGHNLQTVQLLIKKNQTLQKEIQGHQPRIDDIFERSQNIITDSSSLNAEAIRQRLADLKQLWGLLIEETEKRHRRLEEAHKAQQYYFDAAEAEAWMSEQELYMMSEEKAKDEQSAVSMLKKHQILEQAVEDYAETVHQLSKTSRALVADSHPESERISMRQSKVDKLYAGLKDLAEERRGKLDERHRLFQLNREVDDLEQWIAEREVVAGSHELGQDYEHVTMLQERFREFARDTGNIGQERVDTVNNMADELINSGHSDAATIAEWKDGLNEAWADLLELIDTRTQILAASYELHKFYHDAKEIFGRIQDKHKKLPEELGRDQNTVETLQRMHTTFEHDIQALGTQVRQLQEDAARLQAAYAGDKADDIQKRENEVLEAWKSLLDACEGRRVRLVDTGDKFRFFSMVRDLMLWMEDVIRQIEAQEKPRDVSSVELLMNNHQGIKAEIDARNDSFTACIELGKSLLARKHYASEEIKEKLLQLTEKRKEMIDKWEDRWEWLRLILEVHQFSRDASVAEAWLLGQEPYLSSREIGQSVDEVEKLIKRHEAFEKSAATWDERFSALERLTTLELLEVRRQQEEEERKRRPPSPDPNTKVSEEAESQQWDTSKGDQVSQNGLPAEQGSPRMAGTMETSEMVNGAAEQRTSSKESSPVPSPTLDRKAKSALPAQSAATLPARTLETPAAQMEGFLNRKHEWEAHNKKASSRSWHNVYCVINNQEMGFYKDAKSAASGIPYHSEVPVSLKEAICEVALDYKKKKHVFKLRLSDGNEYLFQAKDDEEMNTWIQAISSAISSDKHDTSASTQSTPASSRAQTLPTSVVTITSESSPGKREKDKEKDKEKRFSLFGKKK
UniProt Q61879: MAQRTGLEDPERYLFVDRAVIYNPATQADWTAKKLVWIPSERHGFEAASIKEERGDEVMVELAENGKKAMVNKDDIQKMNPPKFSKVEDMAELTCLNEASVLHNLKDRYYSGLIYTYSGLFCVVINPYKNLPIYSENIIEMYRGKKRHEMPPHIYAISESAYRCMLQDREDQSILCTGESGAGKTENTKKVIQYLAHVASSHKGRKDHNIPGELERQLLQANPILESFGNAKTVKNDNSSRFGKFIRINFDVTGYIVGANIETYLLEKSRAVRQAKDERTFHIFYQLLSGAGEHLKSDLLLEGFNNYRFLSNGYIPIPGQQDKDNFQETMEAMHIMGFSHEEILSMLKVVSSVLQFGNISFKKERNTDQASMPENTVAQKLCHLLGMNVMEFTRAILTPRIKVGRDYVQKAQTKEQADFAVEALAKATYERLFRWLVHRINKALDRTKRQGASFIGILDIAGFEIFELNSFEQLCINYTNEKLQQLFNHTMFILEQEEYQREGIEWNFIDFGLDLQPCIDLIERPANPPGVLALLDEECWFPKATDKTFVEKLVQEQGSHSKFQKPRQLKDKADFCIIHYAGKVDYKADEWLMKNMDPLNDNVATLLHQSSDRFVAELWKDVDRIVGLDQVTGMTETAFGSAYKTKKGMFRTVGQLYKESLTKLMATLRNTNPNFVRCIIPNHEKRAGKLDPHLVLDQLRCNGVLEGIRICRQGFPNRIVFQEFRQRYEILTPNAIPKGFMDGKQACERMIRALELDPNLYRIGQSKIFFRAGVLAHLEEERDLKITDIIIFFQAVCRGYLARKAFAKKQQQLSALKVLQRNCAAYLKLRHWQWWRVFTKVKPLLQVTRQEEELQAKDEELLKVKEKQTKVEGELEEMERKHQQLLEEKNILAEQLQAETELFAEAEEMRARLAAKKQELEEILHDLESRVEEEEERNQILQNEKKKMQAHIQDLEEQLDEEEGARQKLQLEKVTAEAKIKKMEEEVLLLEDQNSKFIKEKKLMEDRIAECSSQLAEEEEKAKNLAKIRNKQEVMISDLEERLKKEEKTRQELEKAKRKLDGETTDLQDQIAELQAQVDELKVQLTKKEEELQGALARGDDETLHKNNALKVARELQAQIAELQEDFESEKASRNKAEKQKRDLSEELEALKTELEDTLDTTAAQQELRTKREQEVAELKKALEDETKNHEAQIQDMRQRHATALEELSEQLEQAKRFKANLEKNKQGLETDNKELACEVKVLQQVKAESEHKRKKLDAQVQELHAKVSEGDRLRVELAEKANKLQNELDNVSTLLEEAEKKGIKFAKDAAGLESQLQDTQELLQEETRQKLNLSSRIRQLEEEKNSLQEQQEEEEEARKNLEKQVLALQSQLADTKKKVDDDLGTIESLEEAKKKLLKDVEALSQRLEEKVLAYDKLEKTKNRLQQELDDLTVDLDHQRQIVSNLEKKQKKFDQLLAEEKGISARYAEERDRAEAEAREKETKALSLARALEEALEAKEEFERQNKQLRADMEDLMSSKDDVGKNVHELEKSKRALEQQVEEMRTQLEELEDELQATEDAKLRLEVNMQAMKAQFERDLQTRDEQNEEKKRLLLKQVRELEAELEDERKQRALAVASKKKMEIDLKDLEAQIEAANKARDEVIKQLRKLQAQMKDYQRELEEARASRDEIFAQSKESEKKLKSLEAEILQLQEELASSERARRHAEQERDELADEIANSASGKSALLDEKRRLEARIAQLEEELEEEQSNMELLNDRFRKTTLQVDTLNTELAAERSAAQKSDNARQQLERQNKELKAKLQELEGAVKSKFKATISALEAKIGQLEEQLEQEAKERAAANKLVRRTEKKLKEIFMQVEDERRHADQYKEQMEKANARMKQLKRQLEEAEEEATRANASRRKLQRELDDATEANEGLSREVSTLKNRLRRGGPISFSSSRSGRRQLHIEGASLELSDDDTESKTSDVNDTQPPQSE
UniProt Q8R527: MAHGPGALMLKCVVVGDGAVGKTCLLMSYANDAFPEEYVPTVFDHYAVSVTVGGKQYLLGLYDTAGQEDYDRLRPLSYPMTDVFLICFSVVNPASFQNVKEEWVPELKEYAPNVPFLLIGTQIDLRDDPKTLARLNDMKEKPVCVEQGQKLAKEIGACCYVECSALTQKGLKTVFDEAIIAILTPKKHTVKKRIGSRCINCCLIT
UniProt P60766: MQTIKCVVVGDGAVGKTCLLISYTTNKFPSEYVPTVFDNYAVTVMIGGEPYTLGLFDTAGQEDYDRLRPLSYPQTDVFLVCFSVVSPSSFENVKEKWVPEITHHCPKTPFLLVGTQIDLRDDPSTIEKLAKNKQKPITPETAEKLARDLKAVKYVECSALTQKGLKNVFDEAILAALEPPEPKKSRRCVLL

T1: CDC42EP4 (mouse (endogenous in cerebellum)) (UniProt Q9JM96)
T1 sequence: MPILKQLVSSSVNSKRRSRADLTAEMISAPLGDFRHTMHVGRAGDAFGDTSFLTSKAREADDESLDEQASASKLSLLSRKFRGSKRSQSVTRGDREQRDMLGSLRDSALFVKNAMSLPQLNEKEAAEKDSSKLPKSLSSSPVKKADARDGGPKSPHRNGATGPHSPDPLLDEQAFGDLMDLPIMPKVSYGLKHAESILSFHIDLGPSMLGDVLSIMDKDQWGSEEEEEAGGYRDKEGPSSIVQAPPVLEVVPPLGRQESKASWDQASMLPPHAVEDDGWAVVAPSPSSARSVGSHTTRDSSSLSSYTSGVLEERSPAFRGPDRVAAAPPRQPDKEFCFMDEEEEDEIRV

B1: SEPT2 (protein, UniProt P42208 1-361)
chain: MSKQQPTQFINPETPGYVGFANLPNQVHRKSVKKGFEFTLMVVGESGLGKSTLINSLFLTDLYPERIIPGAAEKIERTVQIEASTVEIEERGVKLRLTVVDTPGYGDAINCRDCFKTIISYIDEQFERYLHDESGLNRRHIIDNRVHCCFYFISPFGHGLKPLDVAFMKAIHNKVNIVPVIAKADTLTLKERERLKKRILDEIEEHSIKIYHLPDAESDEDEDFKEQTRLLKASIPFSVVGSNQLIEAKGKKVRGRLYPWGVVEVENPEHNDFLKLRTMLITHMQDLQEVTQDLHYENFRSERLKRGGRKVENEDMNKDQILLEKEAELRRMQEMIARMQAQMQMQMQGGDSDSGALGQHV
B2: SEPT4 (protein, UniProt P28661 1-478)
chain: MDHSLGWQGNSVPEDGTEAGIKHFLEDSSDDAELSKFVKDFPGSEPYHSAESKTRVARPQILEPRPQSPDLCDDDVEFRGSLWPQPSDSQQYFSAPAPLSPSSRPRSPWGKLDPYDSSEDDKEYVGFATLPNQVHRKSVKKGFDFTLMVAGESGLGKSTLVNSLFLTDLYRDRKLLGAEERIMQTVEITKHAVDIEEKGVRLRLTIVDTPGFGDAVNNTECWKPVAEYIDQQFEQYFRDESGLNRKNIQDNRVHCCLYFISPFGHGLRPLDVEFMKALHQRVNIVPILAKADTLTPPEVDRKKCKIREEIEHFGIKIYQFPDCDSDEDEDFKLQDQALKESIPFAVIGSNTVVEARGRRVRGRLYPWGIVEVENPGHCDFVKLRTMLVRTHMQDLKDVTRETHYENYRAQCIQSMTRLVVKERNRNKLTRESGTDFPIPAVPPGTDPETEKLIREKDEELRRMQEMLHKIQRQMKETH
B3: SEPT5 (protein, UniProt Q9Z2Q6 1-369)
chain: MSTGLRYKSKLATPEDKQDIDKQYVGFATLPNQVHRKSVKKGFDFTLMVAGESGLGKSTLVHSLFLTDLYKDRKLLSAEERINQTVEILKHTVDIEEKGVKLKLTIVDTPGFGDAVNNSECWKPITDYVDQQFEQYFRDESGLNRKNIQDNRVHCCLYFISPFGHGLRPVDVGFMKALHEKVNIVPLIAKADCLVPSEIRKLKDRIREEIDKFGIHVYQFPECDSDEDEDFKQQDRELKESAPFAVIGSNTVVEAKGQRVRGRLYPWGIVEVENQAHCDFVKLRNMLIRTHMHDLKDVTCDVHYENYRAHCIQQMTSKLTQDSRMESPIPILPLPTPDAETEKLIRMKDEELRRMQEMLQKMKQQMQDQ
B4: SEPT6 (protein, UniProt Q9R1T4 1-434)
chain: MAAADIARQVGEDCRTVPLAGHVGFDSLPDQLVNKSVSQGFCFNILCVGETGLGKSTLMDTLFNTKFEGEPATHTQPGVQLQSNTYDLQESNVGLKLTIVSTVGFGDQINKEDSYKPIVEFIDAQFEAYLQEELKIRRVLHSYHDSRIHVCLYFIAPTGHSLKSLDLVTMKKLDSKVNIIPVIAKSDAISKSELAKFKIKITSELVSNGVQIYQFPTDDESVSEINGTMNAHLPFAVVGSTEEVKIGNKMMRARQYPWGTVQVENEAHCDFVKLREMLIRVNMEDLREQTHARHYELYRRCKLEEMGFKDTDPDSKPFSLQETYEAKRNEFLGELQKKEEEMRQMFVQRVKEKEAELKEAEKELHEKFDRLKKLHQEEKKKLEDKKKCLDEEMNAFKQRKAAAELLQSQGSQAGGSQTLKRDKEKKNNPWLCIE
B5: SEPT7 (protein, UniProt O55131 1-436)
chain: MSVSARSAAAEERSVNCGTMAQPKNLEGYVGFANLPNQVYRKSVKRGFEFTLMVVGESGLGKSTLINSLFLTDLYSPEYPGPSHRIKKTVQVEQSKVLIKEGGVQLLLTIVDTPGFGDAVDNSNCWQPVIDYIDSKFEDYLNAESRVNRRQMPDNRVQCCLYFIAPSGHGLKPLDIEFMKRLHEKVNIIPLIAKADTLTPEECQQFKKQIMKEIQEHKIKIYEFPETDDEEENKLVKKIKDRLPLAVVGSNTIIEVNGKRVRGRQYPWGVAEVENGEHCDFTILRNMLIRTHMQDLKDVTNNVHYENYRSRKLAAVTYNGVDNNKNKGQLTKSPLAQMEEERREHVAKMKKMEMEMEQVFEMKVKEKVQKLKDSEAELQRRHEQMKKNLEAQHKELEEKRRQFEEEKANWEAQQRILEQQNSSRTLEKNKKKGKIF
B6: SEPT8 (protein, UniProt Q8CHH9 1-429)
chain: MAATDLERVSNAEPEPRSLSLGGHVGFDSLPDQLVSKSVTQGFSFNILCVGETGIGKSTLMNTLFNTTFETEEASHHEECVRLRPQTYDLQESNVHLKLTIVDAVGFGDQINKDDSYRPIVDYIDAQFENYLQEELKIRRSLFDYHDTRIHVCLYFITPTGHSLKSLDLVTMKKLDSKVNIIPIIAKADTISKSELHKFKIKIMGELVSNGVQIYQFPTDDEAVAEINAVMNAHLPFAVVGSTEEVKVGNKLVRARQYPWGVVQVENENHCDFVKLREMLIRVNMEDLREQTHSRHYELYRRCKLEEMGFQDSDGDSQPFSLQETYEAKRKEFLSELQRKEEEMRQMFVNKVKETELELKEKERELHEKFEHLKRIHQEEKRKVEEKRRELEEETNAFNCRKAAMEALQSQALHATSQQPLRKDKDKKN
B7: SEPT10 (protein, UniProt Q8C650 1-452)
chain: MASCDEIKEHPRSLSMCGHVGFESLPDQLVDRSIEQGFCFNILCVGETGIGKSTLINTLFNTNFEELESSHFCPCVRLRAQTYELQESNVRLKLTIVNTVGFGDQINKEDSYQPIVDYIDDQFEAYLQEEVKIKRALFNYHDSRIHVCLYFIAPTGHSLRTLDLLTMKSLDNKVNIIPLIAKADTISKSELQKFKMKLMNELVINGVQIYQFPTDDDTTSKINGAMNGHLPFAVVGSMDEIKVGNKMVKGRQYPWGIVQVENENHCDFVKLREMLICTNMEDLREQTHMRHYELYRRCKLQEMGFVDMGPENKPLSLQETYEAKRHEFYGERQRKEEQMKQMFVQRVKEKEAILKEAERELQAKFEHLKRIHQEERMKLEEKRRMLEEESVAFAKKKATCELFPNQSFLASGSSIRKDKDRKKADGASAFCDCLTAQESVRLCISSPRKDMD
B8: SEPT11 (protein, UniProt Q8C1B7 1-431)
chain: MAVAVGRPSNEELRNLSLSGHVGFDSLPDQLVNKSTSQGFCFNILCVGETGIGKSTLMDTLFNTKFESDPATHNEPGVRLKARSYELQESNVRLKLTIVDTVGFGDQINKDDSYKPIVEYIDAQFEAYLQEELKIKRSLFNYHDTRIHACLYFIAPTGHSLKSLDLVTMKKLDSKVNIIPIIAKADTIAKNELHKFKSKIMSELVSNGVQIYQFPTDEETVAEINATMSVHLPFAVVGSTEEVKIGNKMAKARQYPWGVVQVENENHCDFVKLREMLIRVNMEDLREQTHTRHYELYRRCKLEEMGFKDTDPDSKPFSLQETYEAKRNEFLGELQKKEEEMRQMFVMRVKEKEAELKEAEKELHEKFDLLKRTHQEEKKKVEDKKKELEEEVSNFQKKKAAAQLLQSQAQQSGAQQTKKDKDKKNPWLCTE

Molecular target: T1, CDC42EP4 (mouse (endogenous in cerebellum))
Experiment: affinity purification with mass spectrometry; immunoaffinity for CDC42EP4 (anti-CDC42EP4 on protein A beads) from WT mouse cerebellar lysate; buffer C (20 mM Tris-HCl pH 8.0, 0.15 M NaCl, 1 mM EDTA, 1% NP-40), more stringent wash; LC-MS/MS; controls: KO lysate and nonimmune IgG

binding, binds:
SEPT3 (from UniProt Q9Z1S5 1-350)
α-II spectrin (from UniProt P16546 1-2472)
β-II spectrin (from UniProt Q62261 1-2363)
Myosin-10 (nonmuscle myosin heavy chain IIB) (from UniProt Q61879 1-1976)
B1
B2
B3
B4
B5
B6
B7
B8

binding, no binding:
Tc10/RhoQ (from UniProt Q8R527 1-205)
CDC42 (from UniProt P60766 1-191)
